PMC9481933

By UniProt entry, the sequences of proteins in these tests, tags left out.
UniProt Q9WUD1: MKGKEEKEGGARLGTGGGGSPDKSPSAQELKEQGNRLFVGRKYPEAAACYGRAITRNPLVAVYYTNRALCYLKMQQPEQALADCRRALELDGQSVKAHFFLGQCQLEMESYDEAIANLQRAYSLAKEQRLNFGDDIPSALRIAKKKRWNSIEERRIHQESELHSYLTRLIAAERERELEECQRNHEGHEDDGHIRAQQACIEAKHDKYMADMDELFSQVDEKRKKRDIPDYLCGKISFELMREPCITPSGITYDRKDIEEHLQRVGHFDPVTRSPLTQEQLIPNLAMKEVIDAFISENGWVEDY
UniProt P68372: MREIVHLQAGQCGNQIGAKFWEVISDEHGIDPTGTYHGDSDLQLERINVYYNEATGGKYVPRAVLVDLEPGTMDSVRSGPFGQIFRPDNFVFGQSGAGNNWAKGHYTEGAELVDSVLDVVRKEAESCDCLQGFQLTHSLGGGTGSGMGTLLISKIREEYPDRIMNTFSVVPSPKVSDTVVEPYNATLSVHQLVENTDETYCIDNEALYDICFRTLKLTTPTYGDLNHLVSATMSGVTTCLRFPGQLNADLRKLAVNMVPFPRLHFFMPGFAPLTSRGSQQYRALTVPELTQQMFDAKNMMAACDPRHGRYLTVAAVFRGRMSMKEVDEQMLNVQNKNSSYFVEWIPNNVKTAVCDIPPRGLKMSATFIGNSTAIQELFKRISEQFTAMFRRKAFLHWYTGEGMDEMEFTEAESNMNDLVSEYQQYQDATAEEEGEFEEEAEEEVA
UniProt Q14318: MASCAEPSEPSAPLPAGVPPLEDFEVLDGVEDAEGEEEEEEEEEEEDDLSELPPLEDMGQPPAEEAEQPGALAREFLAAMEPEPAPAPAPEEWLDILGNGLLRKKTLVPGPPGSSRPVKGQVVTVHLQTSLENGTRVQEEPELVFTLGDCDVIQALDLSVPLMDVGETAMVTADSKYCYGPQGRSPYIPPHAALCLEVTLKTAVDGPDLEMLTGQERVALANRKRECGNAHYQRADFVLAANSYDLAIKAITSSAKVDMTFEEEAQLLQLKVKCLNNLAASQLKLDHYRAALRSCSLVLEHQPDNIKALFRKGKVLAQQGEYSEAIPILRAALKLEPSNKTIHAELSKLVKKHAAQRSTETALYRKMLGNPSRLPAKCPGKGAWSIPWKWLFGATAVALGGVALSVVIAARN
UniProt P08238: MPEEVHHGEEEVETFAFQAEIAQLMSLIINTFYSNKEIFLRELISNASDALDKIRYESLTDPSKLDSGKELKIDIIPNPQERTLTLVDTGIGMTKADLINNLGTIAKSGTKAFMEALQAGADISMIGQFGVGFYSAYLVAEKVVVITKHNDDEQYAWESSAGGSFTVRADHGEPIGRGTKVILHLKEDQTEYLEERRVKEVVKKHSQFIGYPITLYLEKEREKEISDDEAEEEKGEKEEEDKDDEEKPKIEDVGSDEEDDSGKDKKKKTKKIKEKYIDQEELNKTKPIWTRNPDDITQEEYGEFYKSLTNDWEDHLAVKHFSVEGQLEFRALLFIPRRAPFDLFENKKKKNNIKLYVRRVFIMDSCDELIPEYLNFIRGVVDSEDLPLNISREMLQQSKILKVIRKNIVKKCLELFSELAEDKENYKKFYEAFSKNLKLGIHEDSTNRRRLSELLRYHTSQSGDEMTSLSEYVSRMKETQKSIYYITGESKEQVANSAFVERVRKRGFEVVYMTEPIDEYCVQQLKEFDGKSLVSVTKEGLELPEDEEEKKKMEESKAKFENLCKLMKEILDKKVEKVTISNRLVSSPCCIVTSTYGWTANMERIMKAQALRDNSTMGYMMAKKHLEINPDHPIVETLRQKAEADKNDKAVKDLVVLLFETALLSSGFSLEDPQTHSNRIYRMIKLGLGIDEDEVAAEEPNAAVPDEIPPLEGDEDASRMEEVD
UniProt P31350: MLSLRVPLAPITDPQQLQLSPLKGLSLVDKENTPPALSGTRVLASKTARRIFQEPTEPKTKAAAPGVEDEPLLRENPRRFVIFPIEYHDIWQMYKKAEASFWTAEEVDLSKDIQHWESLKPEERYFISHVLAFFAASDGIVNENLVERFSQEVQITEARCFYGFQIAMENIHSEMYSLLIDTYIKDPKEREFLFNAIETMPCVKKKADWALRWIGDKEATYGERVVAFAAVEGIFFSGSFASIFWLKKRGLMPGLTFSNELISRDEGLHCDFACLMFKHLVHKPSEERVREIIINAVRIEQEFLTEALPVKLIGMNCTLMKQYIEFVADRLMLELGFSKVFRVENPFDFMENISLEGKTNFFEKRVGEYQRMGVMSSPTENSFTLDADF
UniProt P63208: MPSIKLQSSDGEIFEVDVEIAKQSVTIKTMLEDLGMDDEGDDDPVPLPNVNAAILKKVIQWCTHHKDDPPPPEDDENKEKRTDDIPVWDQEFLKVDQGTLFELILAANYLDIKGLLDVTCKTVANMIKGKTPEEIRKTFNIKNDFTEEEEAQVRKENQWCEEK
UniProt Q9BVA1: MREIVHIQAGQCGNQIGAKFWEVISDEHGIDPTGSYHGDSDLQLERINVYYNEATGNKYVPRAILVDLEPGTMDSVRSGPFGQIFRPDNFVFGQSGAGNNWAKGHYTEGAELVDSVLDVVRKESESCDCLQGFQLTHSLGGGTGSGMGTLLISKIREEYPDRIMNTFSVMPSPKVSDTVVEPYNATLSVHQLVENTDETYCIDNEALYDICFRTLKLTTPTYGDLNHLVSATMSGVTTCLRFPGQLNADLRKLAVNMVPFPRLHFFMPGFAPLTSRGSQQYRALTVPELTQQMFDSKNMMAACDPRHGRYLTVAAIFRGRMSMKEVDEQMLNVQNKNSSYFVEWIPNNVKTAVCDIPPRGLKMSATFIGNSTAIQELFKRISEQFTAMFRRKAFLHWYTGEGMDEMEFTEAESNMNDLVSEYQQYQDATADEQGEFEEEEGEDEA

T1: HA-FLAG-tagged Cyclin-F (wild type), in N2a cells (UniProt P41002)
T1 sequence: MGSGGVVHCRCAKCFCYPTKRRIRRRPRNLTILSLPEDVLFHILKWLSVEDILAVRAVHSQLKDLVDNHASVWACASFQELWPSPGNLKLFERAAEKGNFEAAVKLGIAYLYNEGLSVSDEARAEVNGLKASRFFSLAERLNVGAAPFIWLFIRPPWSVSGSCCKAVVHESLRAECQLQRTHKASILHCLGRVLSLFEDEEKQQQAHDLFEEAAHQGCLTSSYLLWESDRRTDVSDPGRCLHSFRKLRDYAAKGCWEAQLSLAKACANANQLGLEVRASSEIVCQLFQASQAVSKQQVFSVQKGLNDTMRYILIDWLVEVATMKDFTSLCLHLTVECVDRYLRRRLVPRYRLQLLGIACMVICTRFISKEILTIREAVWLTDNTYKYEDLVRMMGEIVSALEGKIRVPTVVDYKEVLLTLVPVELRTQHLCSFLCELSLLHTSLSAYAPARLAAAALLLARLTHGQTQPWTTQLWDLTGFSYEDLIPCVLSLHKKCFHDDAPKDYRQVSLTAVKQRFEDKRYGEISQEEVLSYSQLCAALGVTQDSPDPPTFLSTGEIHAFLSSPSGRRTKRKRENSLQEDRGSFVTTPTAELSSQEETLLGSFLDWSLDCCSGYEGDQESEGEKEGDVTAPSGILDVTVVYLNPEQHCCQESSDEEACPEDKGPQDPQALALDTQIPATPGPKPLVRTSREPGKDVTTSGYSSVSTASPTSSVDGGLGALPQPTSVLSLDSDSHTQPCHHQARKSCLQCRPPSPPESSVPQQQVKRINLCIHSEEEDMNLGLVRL

T2: HA-FLAG-tagged Cyclin-F (wild type), in SH-SY5Y cells (UniProt P41002)
T2 sequence: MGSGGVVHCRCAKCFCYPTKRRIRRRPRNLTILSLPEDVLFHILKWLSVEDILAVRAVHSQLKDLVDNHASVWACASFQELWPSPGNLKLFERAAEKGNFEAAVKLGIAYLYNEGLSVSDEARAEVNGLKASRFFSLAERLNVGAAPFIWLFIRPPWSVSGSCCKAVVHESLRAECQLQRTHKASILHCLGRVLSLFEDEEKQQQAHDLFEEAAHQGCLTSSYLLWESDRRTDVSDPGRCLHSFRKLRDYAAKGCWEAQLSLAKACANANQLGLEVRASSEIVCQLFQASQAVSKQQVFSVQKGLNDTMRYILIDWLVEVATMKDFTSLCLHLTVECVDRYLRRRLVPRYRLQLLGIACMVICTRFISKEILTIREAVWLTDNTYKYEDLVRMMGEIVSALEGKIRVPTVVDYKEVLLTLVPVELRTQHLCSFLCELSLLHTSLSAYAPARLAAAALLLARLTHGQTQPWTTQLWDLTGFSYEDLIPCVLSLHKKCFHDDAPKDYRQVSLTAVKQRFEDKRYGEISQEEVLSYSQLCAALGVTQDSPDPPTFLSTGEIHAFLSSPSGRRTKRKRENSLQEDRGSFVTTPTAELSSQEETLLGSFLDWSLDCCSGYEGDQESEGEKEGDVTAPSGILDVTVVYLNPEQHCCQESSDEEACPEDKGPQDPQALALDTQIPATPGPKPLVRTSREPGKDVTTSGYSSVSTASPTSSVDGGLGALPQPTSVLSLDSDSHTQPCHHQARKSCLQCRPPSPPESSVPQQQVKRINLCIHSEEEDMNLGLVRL

T3: myc-APEX2-Cyclin-F, in SH-SY5Y cells (UniProt P41002)
T3 sequence: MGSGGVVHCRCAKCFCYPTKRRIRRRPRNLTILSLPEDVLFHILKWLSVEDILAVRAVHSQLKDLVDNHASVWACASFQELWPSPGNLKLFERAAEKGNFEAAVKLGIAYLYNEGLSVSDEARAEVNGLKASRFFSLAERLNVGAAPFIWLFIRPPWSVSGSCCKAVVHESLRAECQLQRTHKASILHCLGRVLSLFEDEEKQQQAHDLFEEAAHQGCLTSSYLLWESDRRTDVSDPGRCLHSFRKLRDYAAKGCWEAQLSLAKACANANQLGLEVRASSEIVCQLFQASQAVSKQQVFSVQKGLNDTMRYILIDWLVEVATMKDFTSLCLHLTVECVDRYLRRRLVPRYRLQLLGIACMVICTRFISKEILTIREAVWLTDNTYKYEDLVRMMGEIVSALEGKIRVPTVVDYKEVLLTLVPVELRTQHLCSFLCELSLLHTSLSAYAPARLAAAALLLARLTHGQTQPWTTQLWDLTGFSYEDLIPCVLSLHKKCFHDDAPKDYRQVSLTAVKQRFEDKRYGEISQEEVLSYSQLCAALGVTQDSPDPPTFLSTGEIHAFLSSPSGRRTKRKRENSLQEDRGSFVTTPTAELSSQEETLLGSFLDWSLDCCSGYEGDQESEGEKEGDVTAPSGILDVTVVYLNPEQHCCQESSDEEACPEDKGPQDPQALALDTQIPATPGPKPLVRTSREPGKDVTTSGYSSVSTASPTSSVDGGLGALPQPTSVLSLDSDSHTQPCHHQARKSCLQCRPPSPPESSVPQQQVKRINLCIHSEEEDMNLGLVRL

B1: Dnajc7 (endogenous, mouse) (protein, UniProt Q9QYI3 1-494)
chain: MAATAECDVVMAATEPELLEDEDAKREAESFKEQGNAYYAKKDYNEAYNYYTKAIDMCPNNASYYGNRAATLMMLGRFREALGDAQQSVRLDDSFVRGHLREGKCHLSLGNAMAACRSFQRALELDHKNAQAQQEFKNANAVMEYEKIAEVDFEKRDFRKVVFCMDRALEFAPACHRFKILKAECLAMLGRYPEAQFVASDILRMDSTNADALYVRGLCLYYEDCIEKAVQFFVQALRMAPDHEKACVACRNAKALKAKKEDGNKAFKEGNYKLAYELYTEALGIDPNNIKTNAKLYCNRGTVNSKLRQLEDAIEDCTNAVKLDDTYIKAYLRRAQCYMDTEQFEEAVRDYEKVYQTEKTKEHKQLLKNAQLELKKSKRKDYYKILGVDKNASEDEIKKAYRKRALMHHPDRHSGASAEVQKEEEKKFKEVGEAFTILSDPKKKTRYDSGQDLDEEGMNMGDFDANNIFKAFFGGPGGFSFEASGPGNFYFQFG
B2: Kif24 (endogenous) (protein, UniProt Q6NWW5 1-1356)
chain: MASWLYECLCEAELAQYYPHFTALGLQKIDELAKVTMKDYSRLGVHDMNDRKRLFQLIKIIKIMQEEDKALGIPEHPLQASSLYTKPREFRSGPRRQLHFDSPSASKDKMANNETGSLSNFSVDEQKSTYLKVLEHMLPDDSQCQTKIRAPDASAADASMQTETNAPLFSSNYFSPQLGNCDIPVIQRVSHVSGYNYGIPHSCVRQITSENPWTEMEKIRVCVRKRPLGVREVRRGEVNVITVEDKETLLVHEKKEAVDLTQYILQHVFYFDEVFGEACSNQDVYLKTAHPLIQHIFNGGSATCFAYGQTGAGKTYTMIGTHQNPGLYALAAKDIFRQLKVSQSRRNLFVWISFYEIYCGQLYDLLNRRKRLFAREDSKHVVQIAGLRELQVDSVELLLQVILKGSKERSTGATGVNADSSRSHAIIQIQIKDSAKRTFGRISFIDLAGSERAADARDSDRQTKMEGAEINQSLLALKECIRALDQEHTHTPFRQSKLTQVLKDSFIGNAKTCMIANISPSHIATEHTLNTLRYADRVKELKKGVKCCASATSQNQTSANASPKRIQSSPVTLPGDKCSPKKVKLGLQQSLTVAPGPTKVKAHPLASHVPNVPFTSGPKTPGKKSSSRGSPTPEWDMKASPRKGTTRSGHSIKKGAESAPLCSEKSQIGSKIAVGWEGRASDPGEGLLRVRLPTRGKKVQPVQPVQKQLLSRPRLLANSHHLEATQDSKVGTPAGLAPEAWTNPILQQKEREEHLRFYHQQFQQPPLLKQKLNYQPLQRLLCQHRPSEGRLQSETGFPLHSNPENRDGAQAEDLDDSDFSEDSFSHGSSQPAMKQGSTALERSGSSFFLHQDREHSPEEQAAERQQCLLFSSETDGSKKRPADSWVYSRDPIISHRRGALSQSHSPSMVCPDWSKEEDSASSGPSPKDNRAQKPSSSQVDFVHHQKPGEAQVSDIRLEAFTSEVPEQAEGSLSSPSPENGLSFPLSHVAVSGSPDQRDRVCTPLREVSENRVTHTPGRVNSSTPFQEDSGEQIQMCSANASGLMAPLTMSLLETPCHEDLSSLEQIAQDGAGYGFMAEIVGGPAAGHTVPSYDQEAALPVSSATECLWLSSSPPDNRPSGDLPALSPSPIHQHSPDKLPGREAYQTRRPILLPENHMGSKLYDDRAEETELGGSLTFPRKPSSNIHAGVPYSTPFLTSCTGSSNGVGRPWAQERKHPTGVSCQELVSSTDSNKPHYNEDIAWLRHRPISRCLDSDSPVVPSCSSKALRTYCPLTPEQAQQVIIRAHKEQLDEMAELDLKEETLMTQMDSNDFEDFVTQLDEIMALKSRCIQSLRSQLQLYLTSHRPAAAPERTVVS
B3: Dnajb12 (endogenous, mouse) (protein, UniProt Q9QYI4 1-376)
chain: MESNKDEAERCISIALKAIQSNQPERALRFLEKAQRLYPTPRVSALIESLNQKPQSTGDHPQPTDTTHTTTKKAGGTETPSANGEAGGGESAKGYTSEQVAAVKRVKQCKDYYEILGVSRSASDEDLKKAYRKLALKFHPDKNHAPGATEAFKAIGTAYAVLSNPEKRKQYDQFGDDKSQAARHGHSHGDFHRGFEADISPEDLFNMFFGGGFPSSNVHVYSNGRMRYTYQQRQDRRDNQGDGGLGVFVQLMPILILILVSALSQLMVSSPPYSLSPRPSVGHIHKRVTDHLNVAYYVADTFSEEYTGSSLKTVERNVEDDYIANLRNNCWKEKQQKEGLLYRARYFGDTDMYHRAQKMGTPSCNRLSEVQASLHG

These molecules were tested against T1, HA-FLAG-tagged Cyclin-F (wild type), in N2a cells (assay: affinity purification with mass spectrometry; HA-FLAG-CCNF stably expressed in N2a or SH-SY5Y cells; anti-HA affinity resin, elution with HA peptide, trypsin, MS; control HA-FLAG-TBC1D7 IP; quadruplicates).

binding	Molecule
binds	Stub1 (endogenous, mouse) (from UniProt Q9WUD1 1-304)
binds	Tubb4b (endogenous) (from UniProt P68372 1-445)
binds	B1
binds	B2
binds	B3

What follows are molecules tested against T2, HA-FLAG-tagged Cyclin-F (wild type), in SH-SY5Y cells in the same assay as above.

binding	Molecule
binds	FKBP8 (endogenous) (from UniProt Q14318 1-412)
binds	HSP90AB1 (endogenous) (from UniProt P08238 1-724)
binds	RRM2 (endogenous) (from UniProt P31350 1-389)
binds	SKP1 (endogenous) (from UniProt P63208 1-163)
binds	TUBB2B (endogenous) (from UniProt Q9BVA1 1-445)

What follows are molecules tested against T3, myc-APEX2-Cyclin-F, in SH-SY5Y cells (assay: proximity labelling; myc-APEX2-CCNF stably expressed in N2a or SH-SY5Y cells; 500 uM biotin-phenol 30 min, 1 mM H2O2 pulse 1 min; streptavidin pull-down, MS; controls: omission of biotin-phenol or APEX2-TBC1D7; triplicates).

binding	Molecule
binds	HSP90AB1 (endogenous) (from UniProt P08238 1-724)
binds	RRM2 (endogenous) (from UniProt P31350 1-389)
binds	SKP1 (endogenous) (from UniProt P63208 1-163)

These are yes or no findings as the source states them, for the method shown. Binding seen in cells or lysates may run through a third protein. A yes stands for co-enrichment or nearness to the bait. Other partners may have been found. Sequences can lack the tags named with a protein.
